This is an account of results in article PMC6591222, “Phosphatidic acid homeostasis regulated by a type-2 phosphatidic acid phosphatase represents a novel druggable target in malaria intervention” (Cell Death Discovery, 2019).

In general, Kd refers to the concentration at which binding is half-saturated. The low end stands for a tighter complex, the high end for a looser complex.

This test concerns the target T1, PfPAP2 (type-2 phosphatidic acid phosphatase) (Plasmodium falciparum, UniProt A0A143ZY93).
T1 construct: gene PF3D7_0805600
Nature of the test: biochemical.

`CC(C)NCC(O)COc1cccc2ccccc12` (stereo not shown) [Propranolol]: the Kd worked out at 10 µM. This counts as double-digit micromolar.
